PubChem BioAssay AID504764, Drosophila RNAi Screening Center – 2011
Assay: 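Genome-wide screen for regulators of Notch-driven gene expression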 (primary screen). System: Drosophila Kc167 cells. Knock-down reagent: long dsRNA against Drosophila genes. Duration: about 5 days (4 days dsRNA, then 24 h after transfection). Treatment: transfection of constitutively active membrane-tethered Notch lacking the extracellular domain, read 24 h later. Detection: 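Light from a Notch-responsive E(spl)m3 luciferase reporter under active Notch, with control-promoter and no-Notch reporter wells to normalise; raw counts from paired wells a and b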. Scale: induced reporter light, run 1, well a and induced reporter light, run 1, well b: higher = more light from the Notch target reporter with active Notch; control promoter light, run 1, well a and control promoter light, run 1, well b: higher = more light from the viral control promoter (cell number, transfection, viability); uninduced reporter light, run 1, well a: higher = more light from the Notch target reporter without active Notch. Hit rule: 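Hit if the duplicate-averaged log2 ratio of induced to control-promoter light gives a plate-wise z beyond ±2, or induced to uninduced beyond ±1.8; weak-control or discordant-duplicate wells dropped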. Meaning of the calls: active = modifier hit (raised or lowered Notch signal); inactive = not a hit.
The screen tested about 22,000 reagents; below is a random part of those that have a named target and a result. In the full data, 403 (1.9%) are marked active. 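Unnormalised raw counts per well; ratio z-scores behind the hit calls and whether each hit raises or lowers signal are not deposited.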 Unmarked entries are inactive. Names joined by + are all predicted targets of the reagent. Not stated in the record: the amount of reagent.

no.	target	DRSC id	induced reporter light, run 1, well a	induced reporter light, run 1, well b	control promoter light, run 1, well a	control promoter light, run 1, well b	uninduced reporter light, run 1, well a
1	yps (ypsilon schachtel)	DRSC11411	1.48e5	1.35e5	1.31e5	1.15e5	6265
2	CG7567	DRSC16258	97280	1.12e5	1.61e5	1.59e5	9360
3	cnir (cornichon related)	DRSC00499	1.83e5	1.51e5	2.18e5	2.11e5	10040
4	Spn88Ea (Serpin 88Ea)	DRSC17061	10320	8280	8765	9015	745
5	CG17768 + LSm-4	DRSC02845	98575	1.11e5	51870	67505	9310
6	CG34409	DRSC14577	1.30e5	1.16e5	96825	57440	5785
7	CG7786	DRSC07045	1.39e5	1.25e5	2.03e5	1.42e5	8880
8	trc (tricornered)	DRSC11406	53900	44165	31375	31280	2820
9	spz6 (spatzle 6)	DRSC04533	74635	98235	58700	70860	5465
10	CG34384	DRSC12644	1.38e5	1.41e5	1.56e5	1.46e5	10690
11	CG34384	DRSC14855	1.31e5	1.13e5	1.04e5	89560	8855
12	CG34384	DRSC15444	60640	77690	85040	51310	5350
13	CG34384	DRSC16575	1.04e5	1.21e5	73210	81110	4935
14	t-Grip128 (testis-specific gamma-tubulin ring protein 128)	DRSC07853	1.96e5	1.80e5	1.93e5	1.72e5	12330
15	CG42821 + CG42822	DRSC13231	48225	57650	67895	52695	7365
16	CG42821 + CG42822	DRSC13232	59410	43795	59275	52090	6792
17	CG34326 (retired record)	DRSC19165	85235	89440	1.03e5	1.00e5	9490
18	CG5758	DRSC02889	39165	46275	31475	38455	3705
19	CG5758	DRSC02890	1.25e5	1.45e5	1.68e5	1.88e5	12430
20	MTF-1 (Metal response element-binding Transcription Factor-1)	DRSC08983	1.76e5	1.68e5	2.23e5	1.97e5	11145
21	MTF-1 (Metal response element-binding Transcription Factor-1)	DRSC11217	1.78e5	1.19e5	1.65e5	1.61e5	6465
22	CG42715 (retired record)	DRSC05499	77890	1.33e5	2.06e5	1.88e5	13525
23	CG3719	DRSC18493	1.90e5	1.78e5	2.40e5	2.99e5	13740
24	CG5614	DRSC15845	1.96e5	2.29e5	2.03e5	1.98e5	14510
25	CG34174	DRSC00101	1.39e5	1.14e5	1.92e5	2.11e5	11110
26	Invadolysin	DRSC15527	72575	70115	71865	46830	5125
27	CG33791 + CG18170	DRSC08523	1.21e5	1.07e5	1.83e5	1.63e5	6440
28	CG33791 + CG18170	DRSC08601	1.74e5	1.99e5	2.54e5	2.98e5	10150
29	ksr (kinase suppressor of ras)	DRSC12379	79680	79915	48120	47060	6950
30	CG8814	DRSC00707	1.35e5	1.57e5	1.39e5	1.59e5	16390
31	RfC3 (Replication factor C subunit 3)	DRSC03411	1.50e5	1.64e5	73810	86445	18370
32	CG14104	DRSC10106	1.23e5	1.13e5	1.21e5	1.22e5	9300
33	Elp2 (Elongator complex protein 2)	DRSC06095	1.76e5	1.65e5	1.98e5	1.77e5	14620
34	CG4199	DRSC18519	1.97e5	2.33e5	2.94e5	3.71e5	14635

3 entries already listed, sorted by “induced reporter light, run 1, well a”, highest first:
target	DRSC id	induced reporter light, run 1, well a	induced reporter light, run 1, well b	control promoter light, run 1, well a	control promoter light, run 1, well b	uninduced reporter light, run 1, well a
CG34326 (retired record)	DRSC19165	85235	89440	1.03e5	1.00e5	9490
CG42821 + CG42822	DRSC13232	59410	43795	59275	52090	6792
CG42821 + CG42822	DRSC13231	48225	57650	67895	52695	7365
